# Source: the supplement of paper PMC6411743
# Chains of the proteins cited; added tags and fusions are not shown. Lines headed by an entry give the natural chain unless they say otherwise; changes in a name come on top.
# UniProt P49407: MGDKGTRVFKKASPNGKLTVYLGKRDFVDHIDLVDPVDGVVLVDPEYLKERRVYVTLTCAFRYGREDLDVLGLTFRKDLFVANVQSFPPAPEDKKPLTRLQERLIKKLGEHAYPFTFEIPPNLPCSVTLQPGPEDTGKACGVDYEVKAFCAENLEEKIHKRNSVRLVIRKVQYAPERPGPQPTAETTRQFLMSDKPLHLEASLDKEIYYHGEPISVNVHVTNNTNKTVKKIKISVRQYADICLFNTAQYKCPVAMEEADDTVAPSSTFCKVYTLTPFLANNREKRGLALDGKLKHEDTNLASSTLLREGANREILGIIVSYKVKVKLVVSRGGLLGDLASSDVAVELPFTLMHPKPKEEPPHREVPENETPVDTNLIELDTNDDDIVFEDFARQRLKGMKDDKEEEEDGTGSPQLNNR
# UniProt P49902: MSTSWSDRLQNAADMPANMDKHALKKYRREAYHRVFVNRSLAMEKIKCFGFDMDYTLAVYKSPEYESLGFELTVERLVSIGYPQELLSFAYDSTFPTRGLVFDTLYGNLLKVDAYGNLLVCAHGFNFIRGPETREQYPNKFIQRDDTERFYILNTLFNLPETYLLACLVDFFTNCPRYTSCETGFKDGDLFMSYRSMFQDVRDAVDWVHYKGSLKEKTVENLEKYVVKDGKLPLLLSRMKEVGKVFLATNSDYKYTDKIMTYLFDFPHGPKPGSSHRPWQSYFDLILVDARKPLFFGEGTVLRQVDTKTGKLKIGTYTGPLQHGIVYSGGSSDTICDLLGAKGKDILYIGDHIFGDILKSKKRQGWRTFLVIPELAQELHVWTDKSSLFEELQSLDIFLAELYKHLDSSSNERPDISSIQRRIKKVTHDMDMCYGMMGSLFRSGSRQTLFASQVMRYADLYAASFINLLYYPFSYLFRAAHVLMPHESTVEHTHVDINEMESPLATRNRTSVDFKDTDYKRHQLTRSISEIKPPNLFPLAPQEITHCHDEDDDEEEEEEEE
# UniProt P49711: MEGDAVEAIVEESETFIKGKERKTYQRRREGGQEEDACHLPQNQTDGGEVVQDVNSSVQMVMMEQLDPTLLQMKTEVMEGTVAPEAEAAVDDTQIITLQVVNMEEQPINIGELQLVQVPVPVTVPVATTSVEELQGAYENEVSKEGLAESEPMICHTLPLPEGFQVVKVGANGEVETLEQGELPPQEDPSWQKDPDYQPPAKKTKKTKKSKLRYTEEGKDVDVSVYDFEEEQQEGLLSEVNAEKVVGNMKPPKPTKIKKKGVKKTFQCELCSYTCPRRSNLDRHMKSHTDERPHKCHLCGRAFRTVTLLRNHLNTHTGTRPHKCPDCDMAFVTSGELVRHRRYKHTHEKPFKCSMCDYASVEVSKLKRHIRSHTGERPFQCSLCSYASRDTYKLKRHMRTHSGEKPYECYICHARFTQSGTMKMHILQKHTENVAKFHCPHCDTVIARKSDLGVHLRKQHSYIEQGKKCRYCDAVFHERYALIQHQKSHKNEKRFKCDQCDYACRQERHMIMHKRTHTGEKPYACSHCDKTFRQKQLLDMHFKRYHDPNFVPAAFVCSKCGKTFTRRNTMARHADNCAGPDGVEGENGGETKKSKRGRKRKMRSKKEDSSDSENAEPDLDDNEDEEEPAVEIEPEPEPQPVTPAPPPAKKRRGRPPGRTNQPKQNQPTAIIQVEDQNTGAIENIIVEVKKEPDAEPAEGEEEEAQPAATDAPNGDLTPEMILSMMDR
# UniProt P49770: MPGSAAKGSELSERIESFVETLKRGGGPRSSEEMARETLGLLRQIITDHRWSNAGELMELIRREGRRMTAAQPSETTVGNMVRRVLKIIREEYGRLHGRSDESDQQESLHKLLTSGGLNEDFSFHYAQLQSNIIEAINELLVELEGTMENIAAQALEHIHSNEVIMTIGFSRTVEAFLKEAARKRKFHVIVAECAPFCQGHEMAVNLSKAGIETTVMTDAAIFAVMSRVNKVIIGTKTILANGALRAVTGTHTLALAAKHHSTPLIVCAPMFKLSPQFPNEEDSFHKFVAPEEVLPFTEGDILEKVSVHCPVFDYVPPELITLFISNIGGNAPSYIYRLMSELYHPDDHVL
# UniProt P30153, whole entry: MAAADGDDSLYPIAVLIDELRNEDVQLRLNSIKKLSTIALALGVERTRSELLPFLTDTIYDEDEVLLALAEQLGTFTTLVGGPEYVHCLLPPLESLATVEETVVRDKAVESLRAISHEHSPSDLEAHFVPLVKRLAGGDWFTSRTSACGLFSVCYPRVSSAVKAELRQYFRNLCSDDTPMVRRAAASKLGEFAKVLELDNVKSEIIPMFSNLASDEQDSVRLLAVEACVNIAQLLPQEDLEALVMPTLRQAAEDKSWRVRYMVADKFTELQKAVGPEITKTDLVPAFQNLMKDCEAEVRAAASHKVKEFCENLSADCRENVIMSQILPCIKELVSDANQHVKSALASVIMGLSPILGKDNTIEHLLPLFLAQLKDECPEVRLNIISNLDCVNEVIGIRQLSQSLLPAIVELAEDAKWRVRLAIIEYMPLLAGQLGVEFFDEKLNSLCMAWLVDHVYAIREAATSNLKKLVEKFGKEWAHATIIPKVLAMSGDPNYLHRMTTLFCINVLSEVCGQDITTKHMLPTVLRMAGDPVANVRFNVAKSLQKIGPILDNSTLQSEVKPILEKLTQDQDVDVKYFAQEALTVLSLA
# UniProt P49773: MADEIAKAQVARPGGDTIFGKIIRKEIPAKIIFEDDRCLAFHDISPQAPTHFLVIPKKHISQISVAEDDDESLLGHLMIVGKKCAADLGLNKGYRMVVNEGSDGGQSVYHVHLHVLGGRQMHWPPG
# UniProt P27540, whole entry: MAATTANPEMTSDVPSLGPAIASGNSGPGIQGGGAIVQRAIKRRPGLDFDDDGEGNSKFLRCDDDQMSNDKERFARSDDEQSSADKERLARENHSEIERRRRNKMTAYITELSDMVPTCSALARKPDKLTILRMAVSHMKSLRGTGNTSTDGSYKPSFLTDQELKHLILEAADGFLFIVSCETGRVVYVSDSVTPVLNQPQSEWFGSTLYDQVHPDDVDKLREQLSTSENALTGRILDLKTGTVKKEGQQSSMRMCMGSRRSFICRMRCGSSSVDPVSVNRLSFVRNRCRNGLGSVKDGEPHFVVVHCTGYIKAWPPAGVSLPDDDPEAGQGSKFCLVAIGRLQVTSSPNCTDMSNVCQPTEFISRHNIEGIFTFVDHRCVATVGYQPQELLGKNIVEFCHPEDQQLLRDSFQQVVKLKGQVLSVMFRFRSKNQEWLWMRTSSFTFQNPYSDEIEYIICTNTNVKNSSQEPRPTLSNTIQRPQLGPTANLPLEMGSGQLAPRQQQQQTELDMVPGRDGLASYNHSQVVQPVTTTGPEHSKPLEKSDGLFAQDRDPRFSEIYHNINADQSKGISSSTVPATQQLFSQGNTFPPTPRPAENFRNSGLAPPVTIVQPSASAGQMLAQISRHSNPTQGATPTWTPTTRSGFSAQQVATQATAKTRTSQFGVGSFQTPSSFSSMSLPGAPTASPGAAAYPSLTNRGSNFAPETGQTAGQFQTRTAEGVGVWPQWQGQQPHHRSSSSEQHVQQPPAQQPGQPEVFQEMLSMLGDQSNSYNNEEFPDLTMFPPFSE
# UniProt P39748, whole entry: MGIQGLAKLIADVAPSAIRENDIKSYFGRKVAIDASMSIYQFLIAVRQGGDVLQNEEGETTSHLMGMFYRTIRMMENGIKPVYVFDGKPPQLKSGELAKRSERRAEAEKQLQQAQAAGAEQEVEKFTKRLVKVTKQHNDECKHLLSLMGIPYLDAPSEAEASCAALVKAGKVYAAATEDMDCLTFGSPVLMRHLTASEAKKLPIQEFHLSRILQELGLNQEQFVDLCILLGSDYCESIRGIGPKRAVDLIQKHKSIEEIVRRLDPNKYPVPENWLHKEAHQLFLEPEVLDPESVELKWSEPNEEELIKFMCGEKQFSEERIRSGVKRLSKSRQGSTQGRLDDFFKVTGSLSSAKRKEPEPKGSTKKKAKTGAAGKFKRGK
# UniProt P50238: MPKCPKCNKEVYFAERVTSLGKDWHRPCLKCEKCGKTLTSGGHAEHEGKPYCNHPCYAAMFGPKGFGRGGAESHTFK
# UniProt P38935: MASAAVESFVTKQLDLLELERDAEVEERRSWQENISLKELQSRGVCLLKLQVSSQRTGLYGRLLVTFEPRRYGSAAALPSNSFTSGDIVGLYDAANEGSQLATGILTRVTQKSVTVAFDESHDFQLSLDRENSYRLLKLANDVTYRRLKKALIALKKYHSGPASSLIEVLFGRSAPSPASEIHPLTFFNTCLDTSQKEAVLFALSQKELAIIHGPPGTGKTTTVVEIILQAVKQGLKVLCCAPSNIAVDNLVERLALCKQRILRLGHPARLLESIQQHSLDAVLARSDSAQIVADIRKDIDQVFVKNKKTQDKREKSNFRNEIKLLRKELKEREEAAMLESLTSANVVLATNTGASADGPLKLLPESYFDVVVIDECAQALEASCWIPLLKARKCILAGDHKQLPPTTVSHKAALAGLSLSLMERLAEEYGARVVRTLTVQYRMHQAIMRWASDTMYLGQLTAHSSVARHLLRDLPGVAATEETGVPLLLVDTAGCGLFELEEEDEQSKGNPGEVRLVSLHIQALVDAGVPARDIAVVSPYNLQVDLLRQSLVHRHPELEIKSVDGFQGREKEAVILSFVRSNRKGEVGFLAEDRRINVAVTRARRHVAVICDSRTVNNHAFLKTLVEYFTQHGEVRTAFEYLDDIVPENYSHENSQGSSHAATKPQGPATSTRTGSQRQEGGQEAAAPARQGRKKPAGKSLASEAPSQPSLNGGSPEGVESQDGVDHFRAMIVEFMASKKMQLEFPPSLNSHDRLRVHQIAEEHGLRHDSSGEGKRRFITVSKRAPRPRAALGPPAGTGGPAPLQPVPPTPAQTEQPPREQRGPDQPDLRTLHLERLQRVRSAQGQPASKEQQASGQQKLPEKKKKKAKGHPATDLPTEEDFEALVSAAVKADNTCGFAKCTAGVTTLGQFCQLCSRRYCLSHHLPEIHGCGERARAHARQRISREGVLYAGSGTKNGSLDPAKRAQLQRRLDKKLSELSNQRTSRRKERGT
# UniProt P49247: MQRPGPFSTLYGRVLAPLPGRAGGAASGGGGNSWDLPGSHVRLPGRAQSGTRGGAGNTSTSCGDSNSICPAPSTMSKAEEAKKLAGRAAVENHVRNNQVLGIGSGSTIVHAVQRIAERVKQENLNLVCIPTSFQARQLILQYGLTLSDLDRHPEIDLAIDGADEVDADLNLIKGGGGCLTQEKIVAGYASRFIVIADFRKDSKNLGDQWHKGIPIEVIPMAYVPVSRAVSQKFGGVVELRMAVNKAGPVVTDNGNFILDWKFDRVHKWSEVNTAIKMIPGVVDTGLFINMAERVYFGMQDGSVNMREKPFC
# UniProt P48553, whole entry: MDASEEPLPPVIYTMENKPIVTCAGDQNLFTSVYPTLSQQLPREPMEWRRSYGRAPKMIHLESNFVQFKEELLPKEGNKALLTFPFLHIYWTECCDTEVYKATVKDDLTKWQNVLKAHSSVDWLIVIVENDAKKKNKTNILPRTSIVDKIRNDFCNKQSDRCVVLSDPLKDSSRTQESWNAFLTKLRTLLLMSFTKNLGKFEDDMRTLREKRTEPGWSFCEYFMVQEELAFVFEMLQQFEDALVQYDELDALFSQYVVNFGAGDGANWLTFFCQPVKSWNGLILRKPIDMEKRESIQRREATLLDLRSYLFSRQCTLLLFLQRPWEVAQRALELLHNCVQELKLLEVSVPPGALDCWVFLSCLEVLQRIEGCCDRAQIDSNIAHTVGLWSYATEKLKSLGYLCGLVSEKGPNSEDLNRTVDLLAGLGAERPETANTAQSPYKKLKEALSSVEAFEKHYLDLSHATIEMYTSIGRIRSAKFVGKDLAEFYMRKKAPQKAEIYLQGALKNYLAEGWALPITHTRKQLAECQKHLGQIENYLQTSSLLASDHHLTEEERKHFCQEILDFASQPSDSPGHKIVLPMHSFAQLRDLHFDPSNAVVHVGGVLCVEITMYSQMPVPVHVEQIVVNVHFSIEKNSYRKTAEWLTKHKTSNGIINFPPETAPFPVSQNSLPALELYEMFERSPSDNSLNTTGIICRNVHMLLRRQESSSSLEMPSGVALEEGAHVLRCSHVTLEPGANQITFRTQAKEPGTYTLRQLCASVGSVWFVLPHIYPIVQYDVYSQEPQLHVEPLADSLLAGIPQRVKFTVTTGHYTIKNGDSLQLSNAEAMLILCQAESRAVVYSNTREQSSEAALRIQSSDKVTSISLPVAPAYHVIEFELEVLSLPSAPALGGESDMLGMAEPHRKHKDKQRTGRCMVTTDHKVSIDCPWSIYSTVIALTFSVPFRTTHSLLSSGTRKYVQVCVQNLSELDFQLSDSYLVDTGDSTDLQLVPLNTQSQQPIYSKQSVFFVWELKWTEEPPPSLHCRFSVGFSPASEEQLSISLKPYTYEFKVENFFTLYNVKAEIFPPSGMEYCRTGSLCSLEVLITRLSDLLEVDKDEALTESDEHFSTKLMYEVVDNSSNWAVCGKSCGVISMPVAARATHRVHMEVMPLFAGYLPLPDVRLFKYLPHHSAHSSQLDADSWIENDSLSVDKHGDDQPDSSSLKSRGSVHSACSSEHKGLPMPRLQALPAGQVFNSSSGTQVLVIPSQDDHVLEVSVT
# ± gives the standard deviation of the averaged measurements. The list shows a part of the results.
# Compound: Nc1nc2c(ncn2[C@@H]2O[C@H](COP(=O)(O)OP(=O)(O)OP(=O)(O)O)[C@@H](O)[C@H]2O)c(=O)[nH]1 [guanosine triphosphate]
# Experiment: NP40-soluble protein abundance relative to vehicle (solubility fold change) (ratio); higher = more soluble protein in presence of GTP
# In short: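 Jurkat crude lysate prepared with a Dounce homogeniser was treated at eight concentrations spanning 0.1 to 10 mM, 10 min at room temperature then 3 min at 37 °C. Solubilisation with 0.8% NP40 and benzonase and ultracentrifugation preceded TMT labelling of the supernatant for LC-MS/MS. Fold change against the detergent-processed vehicle was determined per replicate from vsn-normalised intensities, across three independent experiments.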
Target,NP40-soluble protein abundance (concentration: 0.1mM),NP40-soluble protein abundance (concentration: 0.5mM),NP40-soluble protein abundance (concentration: 1mM),NP40-soluble protein abundance (concentration: 2mM),NP40-soluble protein abundance (concentration: 4mM),NP40-soluble protein abundance (concentration: 6mM),NP40-soluble protein abundance (concentration: 8mM),NP40-soluble protein abundance (concentration: 10mM)
RPL4 (UniProt P36578),1.03 ± 0.079,1.06 ± 0.093,1.08 ± 0.16,1.05 ± 0.23,0.96 ± 0.28,0.876 ± 0.23,0.692 ± 0.2,0.897 ± 0.24
UniProt P49407 and related entries,0.9714 ± 0.0065,0.962 ± 0.017,0.907 ± 0.02,0.91 ± 0.04,0.904 ± 0.054,0.89 ± 0.042,0.885 ± 0.034,0.869 ± 0.058
UniProt P29144 and related entries,1.01 ± 0.024,1.06 ± 0.062,1.02 ± 0.081,1.05 ± 0.098,1.06 ± 0.1,1.05 ± 0.11,1.04 ± 0.11,1.02 ± 0.11
UniProt P49902 and related entries,1.06 ± 0.13,1.09 ± 0.16,0.92 ± 0.054,0.963 ± 0.22,0.96 ± 0.14,0.932 ± 0.13,0.872 ± 0.099,0.853 ± 0.16
CTCF (UniProt P49711),0.982 ± 0.047,1.02 ± 0.027,0.931 ± 0.053,0.911 ± 0.032,0.89 ± 0.043,0.853 ± 0.043,0.839 ± 0.05,0.818 ± 0.052
UniProt P49841 and related entries,0.946 ± 0.018,0.953 ± 0.014,0.872 ± 0.026,0.878 ± 0.016,0.901 ± 0.035,0.884 ± 0.0089,0.902 ± 0.028,0.874 ± 0.066
PSMC2 (UniProt P35998),0.991 ± 0.026,1.03 ± 0.061,1.03 ± 0.086,1.06 ± 0.1,1.06 ± 0.087,1.08 ± 0.14,1.08 ± 0.13,1.06 ± 0.14
GSS (UniProt P48637),0.995 ± 0.015,0.988 ± 0.021,0.916 ± 0.031,0.912 ± 0.02,0.889 ± 0.037,0.888 ± 0.022,0.865 ± 0.053,0.844 ± 0.081
EIF2B2 (UniProt P49770),1.05 ± 0.03,0.981 ± 0.029,0.966 ± 0.051,1 ± 0.078,1 ± 0.075,0.981 ± 0.076,0.944 ± 0.017,0.932 ± 0.046
RBM25 (UniProt P49756),0.926 ± 0.032,1.02 ± 0.048,1.03 ± 0.074,1.03 ± 0.059,1.07 ± 0.1,1.16 ± 0.13,1.28 ± 0.19,1.38 ± 0.25
MLH1 (UniProt P40692),1.12 ± 0.11,1.19 ± 0.12,1.11 ± 0.11,1.14 ± 0.1,1.12 ± 0.13,1.13 ± 0.13,1.11 ± 0.1,1.14 ± 0.087
UTRN (UniProt P46939),1 ± 0.043,0.978 ± 0.034,1.02 ± 0.051,0.987 ± 0.058,0.999 ± 0.053,0.993 ± 0.043,1.03 ± 0.061,0.985 ± 0.052
PPP2R1A (UniProt P30153),0.985 ± 0.031,0.9458 ± 0.005,0.938 ± 0.019,0.899 ± 0.011,0.906 ± 0.01,0.8968 ± 0.0065,0.903 ± 0.032,0.8781 ± 0.0072
IARS (UniProt P41252),1.12 ± 0.16,1.23 ± 0.24,1.13 ± 0.26,1.27 ± 0.39,1.29 ± 0.33,1.27 ± 0.37,1.19 ± 0.28,1.11 ± 0.28
HINT1 (UniProt P49773),0.907 ± 0.041,0.8807 ± 0.0074,0.9122 ± 0.0027,0.877 ± 0.031,0.848 ± 0.021,0.869 ± 0.038,0.843 ± 0.076,0.86 ± 0.047
GSTM2 (UniProt P28161),1.03 ± 0.058,0.947 ± 0.051,1 ± 0.1,0.976 ± 0.085,0.956 ± 0.1,0.932 ± 0.11,0.886 ± 0.091,0.899 ± 0.12
UniProt P27540 and related entries,0.978 ± 0.071,0.957 ± 0.12,0.957 ± 0.027,0.982 ± 0.11,1.02 ± 0.023,0.961 ± 0.055,0.961 ± 0.059,0.927 ± 0.027
CSK (UniProt P41240),0.993 ± 0.016,0.982 ± 0.018,0.929 ± 0.043,0.898 ± 0.045,0.884 ± 0.06,0.874 ± 0.056,0.862 ± 0.065,0.829 ± 0.081
UniProt P39748 and related entries,0.932 ± 0.069,0.945 ± 0.085,0.945 ± 0.072,0.902 ± 0.12,0.877 ± 0.11,0.928 ± 0.11,0.914 ± 0.068,0.908 ± 0.095
CRIP1 (UniProt P50238),0.992 ± 0.077,0.952 ± 0.04,1.08 ± 0.065,1.02 ± 0.043,1.01 ± 0.016,1.04 ± 0.029,1.06 ± 0.033,1.07 ± 0.033
SRP9 (UniProt P49458),0.943 ± 0.11,0.889 ± 0.065,1.03 ± 0.14,1.03 ± 0.096,1.03 ± 0.095,1.05 ± 0.093,1.01 ± 0.17,1.11 ± 0.17
P39880-3|Q13948 and related entries (UniProt Q13948+P39880),0.948 ± 0.035,0.948 ± 0.058,1.01 ± 0.049,0.978 ± 0.063,1.01 ± 0.054,0.997 ± 0.052,1.03 ± 0.024,1.05 ± 0.063
HTT (UniProt P42858),0.975 ± 0.014,0.988 ± 0.039,1.02 ± 0.058,1.01 ± 0.033,0.951 ± 0.018,0.97 ± 0.064,0.972 ± 0.064,0.939 ± 0.05
UniProt P48449 and related entries,1.04 ± 0.029,1.05 ± 0.053,0.912 ± 0.019,0.922 ± 0.081,0.923 ± 0.024,0.892 ± 0.0077,0.867 ± 0.04,0.855 ± 0.068
IGHMBP2 (UniProt P38935),1.07 ± 0.072,1.09 ± 0.1,1.14 ± 0.099,1.26 ± 0.17,1.44 ± 0.26,1.6 ± 0.27,1.7 ± 0.43,1.92 ± 0.48
RPIA (UniProt P49247),0.978 ± 0.023,0.99 ± 0.028,0.9319 ± 0.0082,0.929 ± 0.025,0.9125 ± 0.0033,0.9167 ± 0.0083,0.874 ± 0.026,0.891 ± 0.037
UniProt P49754 and related entries,1 ± 0.12,1 ± 0.13,0.912 ± 0.058,1.03 ± 0.16,0.914 ± 0.28,0.942 ± 0.2,0.992 ± 0.2,0.986 ± 0.21
PRDX2 (UniProt P32119),0.901 ± 0.063,0.929 ± 0.064,0.891 ± 0.078,0.84 ± 0.07,0.819 ± 0.073,0.846 ± 0.064,0.819 ± 0.089,0.8 ± 0.077
UniProt P29016 and related entries,0.9 ± 0.021,0.868 ± 0.057,0.871 ± 0.14,0.793 ± 0.058,0.847 ± 0.016,0.848 ± 0.022,0.802 ± 0.04,0.871 ± 0.045
TRAPPC10 (UniProt P48553),1.381 ± 0.012,1.16 ± 0.013,1.32 ± 0.0021,1.24 ± 0.08,1.23 ± 0.072,1.206 ± 0.0061,1.221 ± 0.0049,1.24 ± 0.098

# Record cards, as listed above. Order of values: NP40-soluble protein abundance (concentration: 0.1mM)	NP40-soluble protein abundance (concentration: 0.5mM)	NP40-soluble protein abundance (concentration: 1mM)	NP40-soluble protein abundance (concentration: 2mM)	NP40-soluble protein abundance (concentration: 4mM)	NP40-soluble protein abundance (concentration: 6mM)	NP40-soluble protein abundance (concentration: 8mM)	NP40-soluble protein abundance (concentration: 10mM)
# PRDX2 (UniProt P32119) in the list: 0.901 ± 0.063	0.929 ± 0.064	0.891 ± 0.078	0.84 ± 0.07	0.819 ± 0.073	0.846 ± 0.064	0.819 ± 0.089	0.8 ± 0.077
# RPL4 (UniProt P36578) in the list: 1.03 ± 0.079	1.06 ± 0.093	1.08 ± 0.16	1.05 ± 0.23	0.96 ± 0.28	0.876 ± 0.23	0.692 ± 0.2	0.897 ± 0.24
